The record followed here is publication PMC9562184.

Sequences of proteins named here, by UniProt entry; tags and fusion partners are left off.
UniProt Q13547: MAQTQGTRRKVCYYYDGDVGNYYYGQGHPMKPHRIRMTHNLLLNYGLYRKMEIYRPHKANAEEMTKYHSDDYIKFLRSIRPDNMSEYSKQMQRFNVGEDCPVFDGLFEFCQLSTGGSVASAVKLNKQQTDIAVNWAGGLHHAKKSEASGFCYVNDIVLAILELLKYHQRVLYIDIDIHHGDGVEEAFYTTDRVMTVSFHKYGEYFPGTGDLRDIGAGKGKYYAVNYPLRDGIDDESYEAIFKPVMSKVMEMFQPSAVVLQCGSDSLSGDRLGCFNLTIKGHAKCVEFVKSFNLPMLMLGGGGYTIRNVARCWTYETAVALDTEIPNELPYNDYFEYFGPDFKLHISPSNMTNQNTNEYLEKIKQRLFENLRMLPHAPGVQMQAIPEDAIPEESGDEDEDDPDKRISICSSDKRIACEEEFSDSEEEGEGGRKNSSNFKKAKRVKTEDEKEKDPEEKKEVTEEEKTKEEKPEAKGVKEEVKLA
UniProt Q9NQB0: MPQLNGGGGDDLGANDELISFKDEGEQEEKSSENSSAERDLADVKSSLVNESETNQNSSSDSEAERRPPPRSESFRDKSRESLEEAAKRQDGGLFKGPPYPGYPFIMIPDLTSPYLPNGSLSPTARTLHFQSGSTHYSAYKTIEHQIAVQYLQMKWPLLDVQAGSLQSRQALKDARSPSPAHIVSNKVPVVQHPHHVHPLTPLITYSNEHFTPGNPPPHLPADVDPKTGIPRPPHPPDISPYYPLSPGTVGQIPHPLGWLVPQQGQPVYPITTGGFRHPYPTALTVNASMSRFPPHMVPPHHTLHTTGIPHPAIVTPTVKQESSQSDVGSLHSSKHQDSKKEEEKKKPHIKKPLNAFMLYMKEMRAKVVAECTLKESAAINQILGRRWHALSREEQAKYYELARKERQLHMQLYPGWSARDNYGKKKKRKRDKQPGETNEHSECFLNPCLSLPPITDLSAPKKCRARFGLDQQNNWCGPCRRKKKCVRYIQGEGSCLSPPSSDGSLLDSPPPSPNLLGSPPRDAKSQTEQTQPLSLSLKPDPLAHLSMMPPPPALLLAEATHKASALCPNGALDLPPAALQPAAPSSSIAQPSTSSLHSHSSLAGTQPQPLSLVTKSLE
UniProt P35222: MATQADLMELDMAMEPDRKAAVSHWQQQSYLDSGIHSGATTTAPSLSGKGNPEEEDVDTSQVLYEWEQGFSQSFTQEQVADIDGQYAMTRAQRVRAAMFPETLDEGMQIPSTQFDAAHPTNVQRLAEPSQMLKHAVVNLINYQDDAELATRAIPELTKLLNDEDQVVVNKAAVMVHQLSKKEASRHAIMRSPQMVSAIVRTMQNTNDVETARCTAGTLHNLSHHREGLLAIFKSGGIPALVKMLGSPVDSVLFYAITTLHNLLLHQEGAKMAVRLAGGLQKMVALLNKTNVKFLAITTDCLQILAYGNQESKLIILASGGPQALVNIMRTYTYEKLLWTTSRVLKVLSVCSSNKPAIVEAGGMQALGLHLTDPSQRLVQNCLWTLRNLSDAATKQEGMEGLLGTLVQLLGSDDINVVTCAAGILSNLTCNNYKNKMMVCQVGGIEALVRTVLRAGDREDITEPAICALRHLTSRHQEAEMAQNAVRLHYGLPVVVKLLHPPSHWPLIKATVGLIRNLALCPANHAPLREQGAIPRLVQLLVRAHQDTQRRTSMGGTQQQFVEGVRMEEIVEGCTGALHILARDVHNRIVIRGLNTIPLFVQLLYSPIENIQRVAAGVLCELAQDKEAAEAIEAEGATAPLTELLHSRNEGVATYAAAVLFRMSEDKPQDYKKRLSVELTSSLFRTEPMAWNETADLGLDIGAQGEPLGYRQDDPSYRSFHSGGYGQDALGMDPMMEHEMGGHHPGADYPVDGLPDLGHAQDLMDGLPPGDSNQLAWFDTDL
UniProt O15379: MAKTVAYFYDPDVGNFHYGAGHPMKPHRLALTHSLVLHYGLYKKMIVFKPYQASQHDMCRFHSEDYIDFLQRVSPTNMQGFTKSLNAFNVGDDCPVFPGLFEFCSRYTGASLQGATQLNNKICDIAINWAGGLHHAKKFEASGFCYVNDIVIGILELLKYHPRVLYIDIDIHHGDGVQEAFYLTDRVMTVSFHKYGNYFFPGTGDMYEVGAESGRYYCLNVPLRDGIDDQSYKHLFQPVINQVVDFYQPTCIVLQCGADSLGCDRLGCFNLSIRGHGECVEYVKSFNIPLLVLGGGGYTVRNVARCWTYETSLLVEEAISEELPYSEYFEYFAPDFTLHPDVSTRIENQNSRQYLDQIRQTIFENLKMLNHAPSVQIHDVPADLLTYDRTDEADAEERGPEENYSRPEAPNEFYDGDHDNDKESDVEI

Assay [1] concerns the target T1, Myc–CREPT (cell cycle-related and expression-elevated protein in tumor) (UniProt Q9NQG5).
T1 sequence: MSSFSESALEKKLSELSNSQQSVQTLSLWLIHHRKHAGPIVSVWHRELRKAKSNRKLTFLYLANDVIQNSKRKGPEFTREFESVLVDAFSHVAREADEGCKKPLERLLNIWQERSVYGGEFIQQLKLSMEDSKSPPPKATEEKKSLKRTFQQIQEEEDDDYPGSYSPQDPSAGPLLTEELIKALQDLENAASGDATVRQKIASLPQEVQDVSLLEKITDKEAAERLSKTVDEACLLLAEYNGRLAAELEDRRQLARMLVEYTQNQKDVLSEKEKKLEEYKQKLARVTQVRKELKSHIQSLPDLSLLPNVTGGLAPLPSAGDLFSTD
Kind of assay: co-IP; exogenous: HEK293T cells co-transfected with tagged plasmids; lysates incubated with tag antibodies (anti-HA, anti-Myc, anti-Flag) and protein G-Sepharose overnight at 4 °C, washed four times with lysis buffer (50 mM Tris–Cl, 150 mM NaCl, 1% NP40, 0.5% sodium deoxycholate, 1% SDS, pH 8.0), Western blot; in some panels cells with stable Myc–CREPT or CREPT KO, Flag–HDAC1 or siHDAC1, or with Wnt3a for 20 h.

The target in assay [2] is T1, Myc–CREPT (cell cycle-related and expression-elevated protein in tumor). Put plainly: condition: only in the complex first precipitated by the anti-Flag antibody (Flag–HDAC1); co-IP; re-IP: HEK293T co-transfected with Flag–HDAC1 (10 μg), HA–TCF4 (6 μg) and Myc–CREPT (4 μg); first IP with anti-Flag, eluted by 3 × Flag peptide, re-IP with anti-Myc or anti-HA and protein G-Sepharose at 4 °C for 16 h.

Assay [3] has as its target T2, CREPT, endogenous (human (endogenous in HEK293T and DLD1)) (UniProt Q9NQG5).
T2 sequence: T1 sequence
Put plainly: co-IP; endogenous proteins: nuclear extracts or lysates of HEK293T and DLD1 cells, antibodies against HDAC1/2/3 or CREPT with protein G-Sepharose overnight at 4 °C, Western blot; in some panels cells with stable Myc–CREPT or CREPT KO, Flag–HDAC1 or siHDAC1-1/2, or with Wnt3a.

Assay [4] deals with HDAC1, endogenous (human (endogenous in HEK293T and DLD1)) (UniProt Q13547). Described as above.
The target of another assay is T3, Myc–CREPT–CID (UniProt Q9NQG5).
T3 sequence: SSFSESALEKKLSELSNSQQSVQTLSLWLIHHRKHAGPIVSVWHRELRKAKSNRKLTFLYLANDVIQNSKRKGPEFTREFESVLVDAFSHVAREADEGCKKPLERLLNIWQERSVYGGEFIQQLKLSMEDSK
Put plainly: co-IP; exogenous: HEK293T cells co-transfected with tagged plasmids; lysates incubated with tag antibodies (anti-HA, anti-Myc, anti-Flag) and protein G-Sepharose overnight at 4 °C, washed four times with lysis buffer (50 mM Tris–Cl, 150 mM NaCl, 1% NP40, 0.5% sodium deoxycholate, 1% SDS, pH 8.0), Western blot; in some panels cells with stable Myc–CREPT or CREPT KO, Flag–HDAC1 or siHDAC1, or with Wnt3a for 20 h.

Assay [5] concerns the target HA–TCF4 (UniProt Q9NQB0). The description is as above.
Assay [6] deals with HA–TCF4 (UniProt Q9NQB0). Kind of assay: co-IP; re-IP: HEK293T co-transfected with Flag–HDAC1 (10 μg), HA–TCF4 (6 μg) and Myc–CREPT (4 μg); first IP with anti-Flag, eluted by 3 × Flag peptide, re-IP with anti-Myc or anti-HA and protein G-Sepharose at 4 °C for 16 h.
The target of assay [7] is T1, Myc–CREPT (cell cycle-related and expression-elevated protein in tumor). The description is as above.
Another assay concerns the target Flag–β-catenin (UniProt P35222). Put plainly: co-IP; exogenous: HEK293T cells co-transfected with tagged plasmids; lysates incubated with tag antibodies (anti-HA, anti-Myc, anti-Flag) and protein G-Sepharose overnight at 4 °C, washed four times with lysis buffer (50 mM Tris–Cl, 150 mM NaCl, 1% NP40, 0.5% sodium deoxycholate, 1% SDS, pH 8.0), Western blot; in some panels cells with stable Myc–CREPT or CREPT KO, Flag–HDAC1 or siHDAC1, or with Wnt3a for 20 h.

The target of assay [8] is HA–HDAC1 (histone deacetylase 1) (UniProt Q13547). The assay is described as above.
In assay [9] the target is HA–TCF4 (UniProt Q9NQB0). Put plainly: condition: only in the complex first precipitated by the anti-Flag antibody (Flag–HDAC1); co-IP; re-IP: HEK293T co-transfected with Flag–HDAC1 (10 μg), HA–TCF4 (6 μg) and Myc–CREPT (4 μg); first IP with anti-Flag, eluted by 3 × Flag peptide, re-IP with anti-Myc or anti-HA and protein G-Sepharose at 4 °C for 16 h.
The target of assay [10] is HDAC3, endogenous (human (endogenous in HEK293T and DLD1)) (UniProt O15379). Put plainly: co-IP; endogenous proteins: nuclear extracts or lysates of HEK293T and DLD1 cells, antibodies against HDAC1/2/3 or CREPT with protein G-Sepharose overnight at 4 °C, Western blot; in some panels cells with stable Myc–CREPT or CREPT KO, Flag–HDAC1 or siHDAC1-1/2, or with Wnt3a.
Assay [11] deals with HDAC1, endogenous (human (endogenous in HEK293T and DLD1)) (UniProt Q13547). Described as above. The source holds these as a separate data set.

Where two headings read alike, the source gives them in different places. No constants are given. Whether binding was seen depends on the method and setting. Binding seen in cells or lysates may run through a third protein. Some results given as binding are weak or reduced against the parent protein; the word gives no strength. For some of these results: Tags and fused reporters may be left off the sequences shown.

As for HA–TCF4 (from UniProt Q9NQB0 1-619), the binding entry in [1] is listed as “binds”; in assay [2], “no binding”. For “Flag–β-catenin (from UniProt P35222 1-781)”, the binding result in assay [1] is given as “binds”.

On to “TCF4, endogenous (from UniProt Q9NQB0 1-619)”, for which the binding result in [3] and in assay [4] was “binds” throughout. With “HDAC1, endogenous (from UniProt Q13547 1-482) (enzyme)”, the binding result in assay [3] is on record as “binds”.

“Flag–HDAC1 (from UniProt Q13547 1-482) (enzyme)”: the binding entry (with Myc–CREPT–CID; in the assay with HA–TCF4 [5]; in assay [1]; with HA–TCF4 [6]; in assay [7]) was “binds” in each case.

Turning to “HA–HDAC1 (histone deacetylase 1) (from UniProt Q13547 1-482) (enzyme)”, the binding result in the assay with Flag–β-catenin is given as “binds”. On to “β-catenin, endogenous (from UniProt P35222 1-781)”, for which the binding entry in assay [3] and in [4] was “binds” in each case. For the molecule “HDAC3, endogenous (from UniProt O15379 1-428) (enzyme)”, the binding result in [3] is “no binding”.

B1: Myc–CREPT (cell cycle-related and expression-elevated protein in tumor) (protein, UniProt Q9NQG5 1-326)
chain: T1 sequence
With B1, the binding entry in assay [8] is on record as “binds”; with HA–TCF4 [9] it was “no binding”.

B2: CREPT, endogenous (protein, UniProt Q9NQG5 1-326)
chain: T1 sequence
For the molecule B2, the binding result is given as “no binding” in assay [10] and “binds” in assay [11].
